In this assay the test system is 134 cancer cell lines. As to the kind of experiment: Cell viability assay (ATPlite, 72 hours), IC50 on cancer cell line panel. Particulars: Homo sapiens. For orientation: ATP-based viability assays read luminescence as a measure of living cells.

Read-outs that look alike come from different tables or passages of the source.

On to `COc1cc2ncnc(Nc3ccc(F)c(Cl)c3)c2cc1OCCCN1CCOCC1` [gefitinib], for which the IC50 reads like this: (SK-N-SH, read-out: IC50 in cell proliferation assay) 6.92 µM; (SW48, read-out: IC50 in cell proliferation assay) 0.004 µM.

The record behind these values is paper PMC9516332 (Frontiers in Oncology, 2022).
